Taken from: PubChem BioAssay AID1671195 (Yale University, 2021)
Aim: 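Regulators of LDL receptor activity judged by labelled LDL uptake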 (primary screen). Cells: human Huh7 hepatoma cells. Knock-down reagent: siRNA pool against human genes, 18 nM. Duration: about 2 to 2.5 days of knockdown, then 8 h LDL uptake. Treatment: DiI-labelled LDL at 30 µg/ml for 8 h, in lipoprotein-deficient serum medium. Detection: 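Fluorescent LDL signal imaged in cells, scaled to the plate median, robust z-score for each replicate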. Direction: robust z-score: higher = more LDL uptake after knockdown. Hit rule: 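a gene counts as active if at least two replicate z-scores exceed ±2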.
In all, the deposit lists about 22,000 reagents; shown is a random part of them. In the full data, about 1,510 (6.9%) were called active. 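Active includes knockdowns raising or lowering LDL uptake; positive z-scores mean more uptake, negative mean less.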 A number with no mark means an inactive call. Reagent sequences are not shown.

| gene | PubChem SID | robust z-score, replicate 1 | robust z-score, replicate 2 | robust z-score, replicate 3 |
| --- | --- | --- | --- | --- |
| NDUFA5 | SID442895079 | 0.863 | -0.274 | -0.981 |
| UAP1L1 | SID442899866 | -1.12 | -0.669 | -0.252 |
| SMR3B | SID442885632 | 1.62 | 1.54 | 1.13 |
| ACTR5 | SID442883555 | 3.49 (active) | 1.8 | 2.76 |
| TRIM17 | SID442900661 | -0.692 | -0.952 | -0.725 |
| COL12A1 | SID442891437 | 0.262 | 0.301 | 0.298 |
| ENY2 | SID442890737 | 0.961 | 0.546 | -0.381 |
| UNC5D | SID442885546 | 1.24 | 1.18 | 1.99 |
| SAP18 | SID442897689 | -0.405 | -0.552 | -0.283 |
| ZNF559 | SID442891300 | 0.472 | 0.182 | 0.256 |
| TRAF3IP3 | SID442894364 | 0.0716 | -0.00993 | -0.229 |
| EFR3A | SID442886395 | 2.08 | 0.667 | 0.778 |
| SERPINH1 | SID442904423 | -2.09 | -1.12 | -1.69 |
| RNFT2 | SID442883246 | 4.56 (active) | 2.7 | 3.72 |
| DNAJC16 | SID442898984 | -0.616 | -0.534 | -0.537 |
| RPL31P4 | SID442895629 | 0.0408 | -0.377 | -0.228 |
| OSBP2 | SID442902952 | -1.51 | -0.986 | -1.06 |
| AP5Z1 | SID442901015 | -0.771 | -0.0162 | -1.73 |
| ZNF497 | SID442884471 | -2.19 (active) | -2.16 | -2.2 |
| COL11A1 | SID442896553 | -0.134 | -0.0806 | -0.642 |
| LOC440444 (retired record) | SID442896843 | -0.443 | -0.149 | -0.366 |
| ANKRD26 | SID442892841 | 0.328 | -0.5 | 0.525 |

6 successive reagents already listed, for reference:
| gene | PubChem SID | robust z-score, replicate 1 | robust z-score, replicate 2 | robust z-score, replicate 3 |
| --- | --- | --- | --- | --- |
| SAP18 | SID442897689 | -0.405 | -0.552 | -0.283 |
| ZNF559 | SID442891300 | 0.472 | 0.182 | 0.256 |
| TRAF3IP3 | SID442894364 | 0.0716 | -0.00993 | -0.229 |
| EFR3A | SID442886395 | 2.08 | 0.667 | 0.778 |
| SERPINH1 | SID442904423 | -2.09 | -1.12 | -1.69 |
| RNFT2 | SID442883246 | 4.56 (active) | 2.7 | 3.72 |

The results go on:
| gene | PubChem SID | robust z-score, replicate 1 | robust z-score, replicate 2 | robust z-score, replicate 3 |
| --- | --- | --- | --- | --- |
| AURKB | SID442894292 | -0.193 | 0.363 | -0.31 |
| AGAP3 | SID442884616 | 3.68 | 1.32 | 1.65 |
| OSTCP1 | SID442899161 | -0.243 | -0.628 | -0.887 |
| BCAM | SID442894264 | 0.13 | -0.497 | 0.236 |
| DOCK5 | SID442885807 | 0.653 | 1.24 | 2.19 |
| MADCAM1 | SID442899581 | -1.64 | -0.658 | 0.376 |
| LINC00640 | SID442897272 | -0.586 | -0.0715 | -0.444 |
| PRAMEF12 | SID442900454 | -0.615 | -0.866 | -0.802 |
| ARF5 | SID442896572 | -1.17 | 0.85 | -0.543 |
| REG4 | SID442899871 | -0.853 | -1.03 | -0.161 |
| TRAPPC5 | SID442900467 | -0.253 | -0.993 | -1.04 |
| TRIP12 | SID442886954 | 1.99 | 0.389 | 0.681 |
| NFKB2 | SID442902026 | -0.74 | -1.29 | -0.969 |
| LOC389983 (retired record) | SID442887677 | 0.729 | 0.884 | 0.981 |
| MBIP | SID442900520 | -1.63 | -0.951 | 0.264 |
| LINC00954 | SID442894779 | 0.0581 | -0.272 | -0.0855 |
| TMEM151A | SID442889114 | 0.724 | 0.651 | 0.459 |
| LOC389269 (retired record) | SID442900171 | -0.617 | -0.947 | -0.605 |
| TCP10L3 | SID442898016 | -0.744 | -0.854 | 0.242 |
| MRPS18B | SID442902147 | -2.01 | -0.245 | -0.799 |
| MOSPD3 | SID442888851 | 0.893 | 0.23 | 0.829 |
| SMC3 | SID442898096 | 0.548 | -1.09 | -0.838 |
| CD99 | SID442894069 | 0.399 | -0.3 | -0.166 |
| PASK | SID442883264 | 3.25 (active) | 2.76 | 4.66 |
| SGMS1 | SID442904296 | -1.49 | -1.75 | -1.47 |
| OR4A16 | SID442904715 | -1.68 | -2.02 | -1.76 |
| C2orf81 | SID442890632 | 0.202 | 0.434 | 0.532 |
| TMEM106B | SID442885142 | 1.25 | 2.3 | 1.43 |
| NLN | SID442888082 | 1.05 | 0.784 | 0.52 |
| ZNF439 | SID442893630 | -0.0986 | 0.1 | 0.0814 |
| MED1 | SID442898536 | -0.484 | -0.759 | -0.287 |
| SRBD1 | SID442893560 | -0.367 | 0.922 | -0.447 |
| NDUFAF6 | SID442893997 | -0.169 | 0.236 | -0.109 |
| SLCO2B1 | SID442902355 | -1.12 | -1.17 | -0.882 |
| HCG27 | SID442899210 | -0.433 | -0.662 | -0.68 |
| TNFRSF9 | SID442904375 | -1.34 | -1.84 | -1.65 |
| DBF4B | SID442884402 | -1.79 (active) | -2.28 | -2.12 |
| OR4E2 | SID442893204 | 1.38 | -0.663 | -0.488 |
| LINC01501 | SID442898948 | -0.44 | -0.68 | -0.554 |
| USP46 | SID442898236 | -0.432 | -0.551 | -0.445 |
| LALBA | SID442903053 | -0.783 | -1.61 | -1.22 |
| TSPYL4 | SID442892429 | 0.0502 | -0.803 | 1.26 |
| OR6B2 | SID442903143 | -1.29 | -1.23 | -1.16 |
| RPS6P13 | SID442888900 | 0.0454 | 0.807 | 1.08 |
| RAB39A | SID442896566 | 0.733 | -0.782 | -0.814 |
| KCNJ11 | SID442897612 | -0.381 | -1.05 | 0.222 |
